Patent US20100204461

Tested on: alpha-thrombin
Assay: binding assay
Conditions: internal hexaethylene glycol spacer between the two parts; anchor 5' NH2-(CH2)6; fluorescence with 10-fold alpha-thrombin; Tris pH 8.0, 5 mM MgCl2, 10 mM KCl or LiCl; equilibrium reached much faster in LiCl; HEG linker improves performance vs TAL2; purified native protein; label: 5' Cy3 on TAL1, 3' Dabcyl on anchor; folded or branched DNA; variant of TAL2 beacon with Dabcyl anchor

## GGTTGGTTTGGTTGGCAACCTCTGCTACGTG / CACGTAGCAG [TAL1 beacon (HEG spacer) with Dabcyl anchor]
  binding result: binds

For at least one entry, the source does not settle the construct or the ends of the probe.
